# The list shows a part of the results.
# B1: his-Lectin-24A (Drosophila melanogaster) (protein)
# chain: MFRLSVLVLNLLLVSHEFSAGTAKIEIQPLPALCNGYCFPTLKPVMEYVAIHQDKWNTCTEILANEARKDQIQLNIQLDALKADVSNIKASQLSKDEKLDRMEREQFAMHESLETINRYLTVKLDRTKLQLEAIKNTMDYMKAQMDGYFSAINGVQCLQPGFEKIGDRYFYIEEDVELNWLDAQAKCRRMGGHLASIKTKQEFDAIVEKLDDSKSYFLGVNENTKTGDFVSAASGKSCLYHEWGPGEPHHNNDQERCVSILRKLMHVGNCTYEKRFICQYGI
# How the values were obtained:
# Assay in all cases: glycan array binding signal (z-score within array); higher = stronger binding
# Settings in all cases: glycan notation: IUPAC condensed, linker removed
# [1] = target: GlcNAc(b1-2)Gal(b1-3)GalNAc
# Procedure, shortened: (§1)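 Arrays were curated from the Consortium for Functional Glycomics database, 3228 in total, and kept only where the protein sequence was available. Binding is expressed as a within-array Z-score. This score was averaged across arrays of the same protein sequence at different concentrations or buffers and across linkers, and negative values can be read as non-binding.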
# [2] = target: GlcNAc(b1-2)Man(a1-3)[GlcNAc(b1-2)Man(a1-6)]Man(b1-4)GlcNAc(b1-4)GlcNAc
# Procedure, shortened: as §1
# [3] = target: GlcNAc(b1-2)Man(a1-3)[GlcNAc(b1-2)Man(a1-6)]Man(b1-4)GlcNAc(b1-4)[Fuc(a1-6)]GlcNAc
# Procedure, shortened: as §1
# [4] = target: GlcNAc(b1-2)Man(a1-3)[GlcNAc(b1-4)][GlcNAc(b1-2)Man(a1-6)]Man(b1-4)GlcNAc(b1-4)GlcNAc
# Procedure, shortened: as §1
# [5] = target: GlcNAc(b1-2)Man(a1-3)[GlcNAc(b1-4)][GlcNAc(b1-2)Man(a1-6)]Man(b1-4)GlcNAc(b1-4)[Fuc(a1-6)]GlcNAc
# Procedure, shortened: as §1
# [6] = target: GlcNAc(b1-2)[GlcNAc(b1-4)]Man(a1-3)[GlcNAc(b1-2)Man(a1-6)]Man(b1-4)GlcNAc(b1-4)GlcNAc
# Procedure, shortened: as §1
# [7] = target: GlcNAc(b1-2)[GlcNAc(b1-4)]Man(a1-3)[GlcNAc(b1-4)][GlcNAc(b1-2)Man(a1-6)]Man(b1-4)GlcNAc(b1-4)GlcNAc
# Procedure, shortened: as §1
# [8] = target: GlcNAc(b1-2)[GlcNAc(b1-4)]Man(a1-3)[GlcNAc(b1-4)][GlcNAc(b1-2)[GlcNAc(b1-6)]Man(a1-6)]Man(b1-4)GlcNAc(b1-4)GlcNAc
# Procedure, shortened: as §1
# [9] = target: GlcNAc(b1-2)[GlcNAc(b1-4)]Man(a1-3)[GlcNAc(b1-4)][GlcNAc(b1-2)[GlcNAc(b1-6)]Man(a1-6)]Man(b1-4)GlcNAc(b1-4)[Fuc(a1-6)]GlcNAc
# Procedure, shortened: as §1
# [10] = target: GlcNAc(b1-2)[GlcNAc(b1-6)]Man(a1-6)[GlcNAc(b1-2)Man(a1-3)]Man(b1-4)GlcNAc(b1-4)GlcNAc
# Procedure, shortened: as §1
# [11] = target: GlcNAc(b1-2)[GlcNAc(b1-6)]Man(a1-6)[GlcNAc(b1-2)Man(a1-3)]Man(b1-4)GlcNAc(b1-4)[Fuc(a1-6)]GlcNAc
# Procedure, shortened: as §1
# [12] = target: GlcNAc(b1-2)[GlcNAc(b1-6)]Man(a1-6)[GlcNAc(b1-4)][GlcNAc(b1-2)Man(a1-3)]Man(b1-4)GlcNAc(b1-4)GlcNAc
# Procedure, shortened: as §1
# GlcNAc(b1-3)Fuc = target: GlcNAc(b1-3)Fuc
# Procedure, shortened: as §1
# GlcNAc(b1-3)Gal = target: GlcNAc(b1-3)Gal
# Procedure, shortened: as §1
# [13] = target: GlcNAc(b1-3)Gal(b1-3)GalNAc
# Procedure, shortened: as §1
# GlcNAc(b1-3)Gal(b1-4)Glc = target: GlcNAc(b1-3)Gal(b1-4)Glc
# Procedure, shortened: as §1
# [14] = target: GlcNAc(b1-3)Gal(b1-4)GlcNAc
# Procedure, shortened: as §1
# [15] = target: GlcNAc(b1-3)Gal(b1-4)GlcNAc(b1-2)Man(a1-3)[GlcNAc(b1-3)Gal(b1-4)GlcNAc(b1-2)Man(a1-6)]Man(b1-4)GlcNAc(b1-4)GlcNAc
# Procedure, shortened: as §1
# [16] = target: GlcNAc(b1-3)Gal(b1-4)GlcNAc(b1-2)Man(a1-3)[GlcNAc(b1-3)Gal(b1-4)GlcNAc(b1-2)Man(a1-6)]Man(b1-4)GlcNAc(b1-4)[Fuc(a1-6)]GlcNAc
# Procedure, shortened: as §1
# [17] = target: GlcNAc(b1-3)Gal(b1-4)GlcNAc(b1-2)[GlcNAc(b1-3)Gal(b1-4)GlcNAc(b1-6)]Man(a1-6)[GlcNAc(b1-3)Gal(b1-4)GlcNAc(b1-2)Man(a1-3)]Man(b1-4)GlcNAc(b1-4)GlcNAc
# Procedure, shortened: as §1
# [18] = target: GlcNAc(b1-3)Gal(b1-4)GlcNAc(b1-3)Gal(b1-4)GlcNAc
# Procedure, shortened: as §1
# [19] = target: GlcNAc(b1-3)Gal(b1-4)GlcNAc(b1-3)Gal(b1-4)GlcNAc(b1-2)Man(a1-3)[GlcNAc(b1-3)Gal(b1-4)GlcNAc(b1-3)Gal(b1-4)GlcNAc(b1-2)Man(a1-6)]Man(b1-4)GlcNAc(b1-4)GlcNAc
# Procedure, shortened: as §1
# [20] = target: GlcNAc(b1-3)Gal(b1-4)GlcNAc(b1-3)Gal(b1-4)GlcNAc(b1-2)Man(a1-3)[GlcNAc(b1-3)Gal(b1-4)GlcNAc(b1-3)Gal(b1-4)GlcNAc(b1-2)Man(a1-6)]Man(b1-4)GlcNAc(b1-4)[Fuc(a1-6)]GlcNAc
# Procedure, shortened: as §1
# [21] = target: GlcNAc(b1-3)Gal(b1-4)GlcNAc(b1-3)Gal(b1-4)GlcNAc(b1-2)[GlcNAc(b1-3)Gal(b1-4)GlcNAc(b1-3)Gal(b1-4)GlcNAc(b1-6)]Man(a1-6)[GlcNAc(b1-3)Gal(b1-4)GlcNAc(b1-3)Gal(b1-4)GlcNAc(b1-2)Man(a1-3)]Man(b1-4)GlcNAc(b1-4)[Fuc(a1-6)]GlcNAc
# Procedure, shortened: as §1
# [22] = target: GlcNAc(b1-3)Gal(b1-4)GlcNAc(b1-3)Gal(b1-4)GlcNAc(b1-3)Gal(b1-4)GlcNAc(b1-2)Man(a1-3)[GlcNAc(b1-3)Gal(b1-4)GlcNAc(b1-3)Gal(b1-4)GlcNAc(b1-3)Gal(b1-4)GlcNAc(b1-2)Man(a1-6)]Man(b1-4)GlcNAc(b1-4)GlcNAc
# Procedure, shortened: as §1
# [23] = target: GlcNAc(b1-3)Gal(b1-4)GlcNAc(b1-3)Gal(b1-4)GlcNAc(b1-3)Gal(b1-4)GlcNAc(b1-2)Man(a1-3)[GlcNAc(b1-3)Gal(b1-4)GlcNAc(b1-3)Gal(b1-4)GlcNAc(b1-3)Gal(b1-4)GlcNAc(b1-2)Man(a1-6)]Man(b1-4)GlcNAc(b1-4)[Fuc(a1-6)]GlcNAc
# Procedure, shortened: as §1
# [24] = target: GlcNAc(b1-3)Gal(b1-4)GlcNAc(b1-3)Gal(b1-4)GlcNAc(b1-3)Gal(b1-4)GlcNAc(b1-2)[GlcNAc(b1-3)Gal(b1-4)GlcNAc(b1-3)Gal(b1-4)GlcNAc(b1-3)Gal(b1-4)GlcNAc(b1-6)]Man(a1-6)[GlcNAc(b1-3)Gal(b1-4)GlcNAc(b1-3)Gal(b1-4)GlcNAc(b1-3)Gal(b1-4)GlcNAc(b1-2)Man(a1-3)]Man(b1-4)GlcNAc(b1-4)[Fuc(a1-6)]GlcNAc
# Procedure, shortened: as §1
# [25] = target: GlcNAc(b1-3)Gal(b1-4)GlcNAc(b1-3)Gal(b1-4)GlcNAc(b1-3)Gal(b1-4)GlcNAc(b1-3)Gal(b1-4)GlcNAc(b1-2)Man(a1-3)[GlcNAc(b1-3)Gal(b1-4)GlcNAc(b1-3)Gal(b1-4)GlcNAc(b1-3)Gal(b1-4)GlcNAc(b1-3)Gal(b1-4)GlcNAc(b1-2)Man(a1-6)]Man(b1-4)GlcNAc(b1-4)GlcNAc
# Procedure, shortened: as §1
# [26] = target: GlcNAc(b1-3)Gal(b1-4)GlcNAc(b1-3)Gal(b1-4)GlcNAc(b1-3)Gal(b1-4)GlcNAc(b1-3)Gal(b1-4)GlcNAc(b1-2)Man(a1-3)[GlcNAc(b1-3)Gal(b1-4)GlcNAc(b1-3)Gal(b1-4)GlcNAc(b1-3)Gal(b1-4)GlcNAc(b1-3)Gal(b1-4)GlcNAc(b1-2)Man(a1-6)]Man(b1-4)GlcNAc(b1-4)[Fuc(a1-6)]GlcNAc
# Procedure, shortened: as §1
# [27] = target: GlcNAc(b1-3)Gal(b1-4)GlcNAc(b1-3)Gal(b1-4)GlcNAc(b1-3)Gal(b1-4)GlcNAc(b1-3)Gal(b1-4)GlcNAc(b1-2)[GlcNAc(b1-3)Gal(b1-4)GlcNAc(b1-3)Gal(b1-4)GlcNAc(b1-3)Gal(b1-4)GlcNAc(b1-3)Gal(b1-4)GlcNAc(b1-6)]Man(a1-6)[GlcNAc(b1-3)Gal(b1-4)GlcNAc(b1-3)Gal(b1-4)GlcNAc(b1-3)Gal(b1-4)GlcNAc(b1-3)Gal(b1-4)GlcNAc(b1-2)Man(a1-3)]Man(b1-4)GlcNAc(b1-4)[Fuc(a1-6)]GlcNAc
# Procedure, shortened: as §1
# [28] = target: GlcNAc(b1-3)Gal(b1-4)GlcNAc(b1-3)Gal(b1-4)GlcNAc(b1-3)GalNAc
# Procedure, shortened: as §1
# [29] = target: GlcNAc(b1-3)Gal(b1-4)GlcNAc(b1-3)GalNAc
# Procedure, shortened: as §1
# [30] = target: GlcNAc(b1-3)Gal(b1-4)GlcNAc(b1-3)[GlcNAc(b1-3)Gal(b1-4)GlcNAc(b1-3)]GalNAc
# Procedure, shortened: as §1
# [31] = target: GlcNAc(b1-3)Gal(b1-4)GlcNAc(b1-6)[Gal(b1-3)]GalNAc
# Procedure, shortened: as §1
# [32] = target: GlcNAc(b1-3)Gal(b1-4)GlcNAc(b1-6)[GlcNAc(b1-3)Gal(b1-3)]GalNAc
# Procedure, shortened: as §1
# [33] = target: GlcNAc(b1-3)Gal(b1-4)GlcNAc(b1-6)[GlcNAc(b1-3)]Gal(b1-4)GlcNAc
# Procedure, shortened: as §1
# GlcNAc(b1-3)GalNAc = target: GlcNAc(b1-3)GalNAc
# Procedure, shortened: as §1
binder,measurement,setting,value
B1,glycan array binding signal (z-score),[1],-0.893
same,glycan array binding signal (z-score),[2],-0.233
same,glycan array binding signal (z-score),[3],0.72
same,glycan array binding signal (z-score),[4],-1.32
same,glycan array binding signal (z-score),[5],-0.9
same,glycan array binding signal (z-score),[6],-0.675
same,glycan array binding signal (z-score),[7],-1.06
same,glycan array binding signal (z-score),[8],0.555
same,glycan array binding signal (z-score),[9],2.05
same,glycan array binding signal (z-score),[10],-0.588
same,glycan array binding signal (z-score),[11],1.69
same,glycan array binding signal (z-score),[12],-0.763
same,glycan array binding signal (z-score),GlcNAc(b1-3)Fuc,-0.062
same,glycan array binding signal (z-score),GlcNAc(b1-3)Gal,-0.752
same,glycan array binding signal (z-score),[13],-0.884
same,glycan array binding signal (z-score),GlcNAc(b1-3)Gal(b1-4)Glc,0.074
same,glycan array binding signal (z-score),[14],-0.137
same,glycan array binding signal (z-score),[15],0.459
same,glycan array binding signal (z-score),[16],0.264
same,glycan array binding signal (z-score),[17],-0.086
same,glycan array binding signal (z-score),[18],-0.845
same,glycan array binding signal (z-score),[19],-1
same,glycan array binding signal (z-score),[20],0.207
same,glycan array binding signal (z-score),[21],2.11
same,glycan array binding signal (z-score),[22],0.601
same,glycan array binding signal (z-score),[23],0.824
same,glycan array binding signal (z-score),[24],1.15
same,glycan array binding signal (z-score),[25],0.615
same,glycan array binding signal (z-score),[26],2.05
same,glycan array binding signal (z-score),[27],0.991
same,glycan array binding signal (z-score),[28],-0.549
same,glycan array binding signal (z-score),[29],-0.152
same,glycan array binding signal (z-score),[30],-1.7
same,glycan array binding signal (z-score),[31],2.02
same,glycan array binding signal (z-score),[32],1.17
same,glycan array binding signal (z-score),[33],1
same,glycan array binding signal (z-score),GlcNAc(b1-3)GalNAc,0.694

# In a second layout: entries from further up.
binder | measurement | setting | value
B1 | glycan array binding signal (z-score) | [24] | 1.15
same | glycan array binding signal (z-score) | [25] | 0.615

# From the supplement of paper PMC8728848
